Experimental data reported in the supplement of paper PMC10626197.
Structures can show the parent of a compound that is named as a salt. Several reference drugs read as weak here; read low effects with care.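 MCF7, a breast cancer cell line, was exposed to pairs of drugs across a grid of doses. Every plate had solvent-only (DMSO) wells as the untreated reference and a doxorubicin series as the total-kill control. No hit threshold is applied to these viability readings.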

Tested on: MCF7
Assay: cell viability relative to DMSO control (raw); higher = more viable cells
Conditions: exposure time 72 h
Description: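 MCF7 cells, 1000 cells/well in 384-well plates, treated with 6x6 dose matrices of drug pairs (1:3 serial dilutions, DMSO as lowest dose) for 72 h at 37 °C. Viability read by CellTiter-Glo luminescence, 3 biological replicates. Normalised viability sets 0% at the highest doxorubicin dose and 100% at the 0,0 µM control per combination.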

C#CCC(Cc1cnc2nc(N)nc(N)c2n1)c1ccc(C(=O)N[C@@H](CCC(=O)O)C(=O)O)cc1 (stereo not given in full) [Pralatrexate] + C[C@@H](NCCCc1cccc(C(F)(F)F)c1)c1cccc2ccccc12 [Cinacalcet (hydrochloride)]
cell viability [%]
Conditions	drug 2 concentration 0 µM	drug 2 concentration 0.123457 µM	drug 2 concentration 0.37037 µM	drug 2 concentration 1.11111 µM	drug 2 concentration 3.33333 µM	drug 2 concentration 10 µM
drug 1 concentration 0.000493827 µM	76.9	83.3	86.4	79.9	51.2	8.17
drug 1 concentration 0.00148148 µM	88.1	77	95.5	81.1	58.9	9.54
drug 1 concentration 0.00444444 µM	78.4	87.9	86.4	79	55.9	7
drug 1 concentration 0.0133333 µM	94.9	92.1	97.8	92.7	72.5	11.5
drug 1 concentration 0.04 µM	105	101	102	93.2	63.2	9.7

O=C(c1ccc(OCCN2CCCCC2)cc1)c1c(-c2ccc(O)cc2)sc2cc(O)ccc12 [Raloxifene] + COc1ccc2cccc(CCNC(C)=O)c2c1 [Agomelatine]
cell viability [%]
Conditions	drug 2 concentration 0 µM	drug 2 concentration 0.123457 µM	drug 2 concentration 0.37037 µM	drug 2 concentration 1.11111 µM	drug 2 concentration 3.33333 µM	drug 2 concentration 10 µM
drug 1 concentration 0.0617284 µM	99	100	105	102	107	104
drug 1 concentration 0.185185 µM	103	111	105	113	112	109
drug 1 concentration 0.555556 µM	103	105	103	107	110	104
drug 1 concentration 1.66667 µM	101	102	105	102	104	99.5
drug 1 concentration 5 µM	93.2	95	92.9	94.7	89.8	101

O=C(c1ccc(OCCN2CCCCC2)cc1)c1c(-c2ccc(O)cc2)sc2cc(O)ccc12 [Raloxifene] + C[C@]12CC[C@@H]3c4ccc(O)cc4CC[C@H]3[C@@H]1CC[C@@H]2O [Estradiol]
cell viability [%]
Conditions	drug 2 concentration 0 µM	drug 2 concentration 0.123457 µM	drug 2 concentration 0.37037 µM	drug 2 concentration 1.11111 µM	drug 2 concentration 3.33333 µM	drug 2 concentration 10 µM
drug 1 concentration 0.0617284 µM	104	101	94.2	93.3	96.5	98.6
drug 1 concentration 0.185185 µM	88.5	93.1	90.1	97.4	88.9	89.8
drug 1 concentration 0.555556 µM	97.7	96.8	94.2	95.7	106	96.9
drug 1 concentration 1.66667 µM	92.8	102	97.7	99.2	100	97.5
drug 1 concentration 5 µM	92.3	104	111	109	123	108

N#CC[C@H](C1CCCC1)n1cc(-c2ncnc3[nH]ccc23)cn1 [Ruxolitinib] + CCC(=O)OCC(=O)[C@@]1(OC(=O)CC)[C@@H](C)C[C@H]2[C@@H]3CCC4=CC(=O)C=C[C@]4(C)[C@@]3(F)[C@@H](O)C[C@@]21C [Betamethasone dipropionate]
cell viability [%]
Conditions	drug 2 concentration 0 µM	drug 2 concentration 0.037037 µM	drug 2 concentration 0.111111 µM	drug 2 concentration 0.333333 µM	drug 2 concentration 1 µM	drug 2 concentration 3 µM
drug 1 concentration 0.37037 µM	108	105	111	108	105	105
drug 1 concentration 1.11111 µM	110	106	119	115	111	111
drug 1 concentration 3.33333 µM	118	118	114	113	110	115
drug 1 concentration 10 µM	130	122	122	125.5	126	120
drug 1 concentration 30 µM	83.3	82.3	89.2	86.5	81.6	73.9

CNC(=O)c1cc(Oc2ccc(NC(=O)Nc3ccc(Cl)c(C(F)(F)F)c3)cc2)ccn1 [Sorafenib] + CNS(=O)(=O)Cc1ccc2[nH]cc(CCN(C)C)c2c1 [Sumatriptan (succinate)]
cell viability [%]
Conditions	drug 2 concentration 0 µM	drug 2 concentration 0.0740741 µM	drug 2 concentration 0.222222 µM	drug 2 concentration 0.666667 µM	drug 2 concentration 2 µM	drug 2 concentration 6 µM
drug 1 concentration 0.493827 µM	88.1	94.4	98.8	92.1	94	93.1
drug 1 concentration 1.48148 µM	89.9	86.8	92.1	90.5	90.6	87.2
drug 1 concentration 4.44444 µM	57.5	58.9	56.5	57.6	61.1	58.1
drug 1 concentration 13.3333 µM	19.8	26.2	23.7	25.6	26.5	25
drug 1 concentration 40 µM	2.63	1.71	3.05	2.62	4.22	4.07

CC/C(=C(\c1ccccc1)c1ccc(OCCN(C)C)cc1)c1ccccc1 [Tamoxifen] + CCCCC[C@H](O)/C=C/[C@H]1[C@H](O)CC(=O)[C@@H]1CCCCCCC(=O)O [Prostaglandin E1]
cell viability [%]
Conditions	drug 2 concentration 0 µM	drug 2 concentration 0.617284 µM	drug 2 concentration 1.85185 µM	drug 2 concentration 5.55556 µM	drug 2 concentration 16.6667 µM	drug 2 concentration 50 µM
drug 1 concentration 0.123457 µM	108	109	108	113	104	73.9
drug 1 concentration 0.37037 µM	103	118	124	117	110	75.7
drug 1 concentration 1.11111 µM	105	115	114	109	104	83.3
drug 1 concentration 3.33333 µM	95.8	102	116	102	99.4	74.6
drug 1 concentration 10 µM	54.7	49	57	59.5	56.6	44.5
